In PubChem BioAssay AID256 (DTP/NCI, 2004):
The list does not hold the whole screen: it is rich in T/C values a quarter to a half above the control, in often repeated tests (any T/C) and in doses without a T/C. Further doses and runs are listed elsewhere. T/C is the treated group as % of the vehicle group. Some entries give survivors of the animals treated and no T/C: the source holds a T/C of zero for them, seemingly a mark for toxic or unscored doses. Some survivor counts are full or nearly so, which does not show that the dose was tolerated: the source hardly ever lists a survival T/C far under the control, and the zero likely stands for such cases as well. Counts of survivors are from the toxicity check (mostly the fifth day) where no day follows; animals may have died later. Schedules are NCI's codes, taken here to give the interval after Q, in days (D) or hours (H), and the number of doses after X. Some entries were tested several times; the values are given in rising order. For survival time, the PubChem record calls one and a half times the control and up active, and a quarter to a half above the control has no call in these data; cut-offs in other NCI protocols can differ. Brackets with × stand for listed records that agree.

Test system: CD2F1 mice, L1210 leukemia ip, survival T/C
Test: NCI In Vivo Anticancer Drug Screen. Data for tumor model L1210 Leukemia (intraperitoneal) in CD2F1 (CDF1) mice
Conditions: higher T/C = longer survival
Method: The antitumor activity of compounds was measured in mice bearing transplantable tumors. Survival or tumor size were measured and the results are expressed as the measurement made in the treated group (T) divided by the measurement made in the vehicle treated control group (C). The tumor model used in this assay is L1210 Leukemia (intraperitoneal) in CD2F1 (CDF1) mice

[1] = T/C endpoint: mean survival time, dose: 200.0 mg/kg/injection, schedule: Q01DX009 (ip), vehicle: saline with Tween-80
[2] = T/C endpoint: mean survival time, dose: 400.0 mg/kg/injection, schedule: Q01DX009 (ip), vehicle: saline with Tween-80
[3] = T/C endpoint: mean survival time, dose: 400.0 mg/kg/injection, schedule: Q01DX009 (ip), vehicle: Klucel (hydroxypropylcellulose) (HPC)
[4] = T/C endpoint: mean survival time, dose: 100.0 mg/kg/injection, schedule: Q01DX009 (ip), vehicle: saline with Tween-80
[5] = T/C endpoint: mean survival time, dose: 400.0 mg/kg/injection, schedule: Q04DX003 (ip), vehicle: saline with Tween-80
[6] = T/C endpoint: median survival time, dose: 400.0 mg/kg/injection, schedule: Q01DX009 (ip), vehicle: saline
[7] = T/C endpoint: mean survival time, dose: 400.0 mg/kg/injection, schedule: Q04DX003 (ip), vehicle: saline
[8] = T/C endpoint: mean survival time, dose: 400.0 mg/kg/injection, schedule: Q04DX002 (ip), vehicle: saline with Tween-80
[9] = T/C endpoint: mean survival time, dose: 5.0 mg/kg/injection, schedule: Q01DX009 (ip), vehicle: Klucel (hydroxypropylcellulose) (HPC)
[10] = T/C endpoint: mean survival time, dose: 150.0 mg/kg/injection, schedule: Q01DX001 (ip), vehicle: saline
[11] = T/C endpoint: mean survival time, dose: 300.0 mg/kg/injection, schedule: Q01DX001 (ip), vehicle: saline
[12] = T/C endpoint: mean survival time, dose: 400.0 mg/kg/injection, schedule: Q01DX001 (ip), vehicle: saline with Tween-80

With `Nc1c(Br)cc2c(c1Br)Cc1cc(Cl)ccc1-2` the survivor count [1] was 0 of 6 and the survivor count [2] was 1 of 6.
`Nc1nc(N)c2cc(CNc3ccc(C(=O)NC(CC(=O)O)CC(=O)O)cc3)cnc2n1` was tested, and the T/C (T/C endpoint: mean survival time, dose: 200.0 mg/kg/injection, schedule: Q01DX009 (ip), vehicle: Klucel (hydroxypropylcellulose) (HPC)) was 142 % of control and the survivor count [3] was 1 of 6.
For `C=C1CC2CCC1C2` (stereo not given), the survivor count [1] was 5 of 6 and the survivor count [2] was 3 of 6.
With `Fc1ccc(NC(=S)SCc2ccc(Cl)c(Cl)c2)cc1F` the survivor count [3] was 5 of 6.
In the case of `CCCCCCCCCCCCCCCCCCN1CCOCC1`, the survivor count [4] was 1 of 6, the survivor count [1] was 2 of 6 and the survivor count [2] was 0 of 6.
`CCOC(=O)Cc1nc2ccccc2[nH]1` was tested, and the survivor count [5] was 3 of 3.
`CN(CCN(C)C(=O)CCOS(C)(=O)=O)C(=O)CCOS(C)(=O)=O` was tested, and the T/C (T/C endpoint: median survival time, dose: 25.0 mg/kg/injection, schedule: Q01DX009 (ip), vehicle: saline) was 121 and 135 % of control (2×), the T/C (T/C endpoint: median survival time, dose: 50.0 mg/kg/injection, schedule: Q01DX009 (ip), vehicle: saline) was 150, 170, 174 % of control and the T/C (T/C endpoint: median survival time, dose: 100.0 mg/kg/injection, schedule: Q01DX009 (ip), vehicle: saline) was 210, 250, 256 % of control. For the same compound, the T/C (T/C endpoint: median survival time, dose: 200.0 mg/kg/injection, schedule: Q01DX009 (ip), vehicle: saline) was 102, 150, 171 % of control, the T/C [6] was 102 % of control and the survivor count [6] was 9 of 10 and 10 of 10.
With `O=C(O)CC1(CC(=O)O)CCCCC1` the survivor count [5] was 6 of 6.
In the case of `CCCCCC(O)CCC(=O)NN` (stereo not given), the survivor count [7] was 1 of 6.
In the case of `CC1(C)C2CCC(CN=C(N)CSS(=O)(=O)O)C1C2` (stereo not given), the survivor count (T/C endpoint: mean survival time, dose: 100.0 mg/kg/injection, schedule: Q04DX002 (ip), vehicle: saline with Tween-80) was 0 of 3, the survivor count (T/C endpoint: mean survival time, dose: 200.0 mg/kg/injection, schedule: Q04DX002 (ip), vehicle: saline with Tween-80) was 0 of 3 and the survivor count [8] was 0 of 3.
For `COc1cc(C(=O)NNC(=O)c2ccc(Cl)cc2)cc(OC)c1OC`, the survivor count [2] was 6 of 6.
`O=P(CCC(O)c1ccccc1)(c1ccccc1)c1ccccc1` (stereo not given) was tested, and the survivor count [1] was 3 of 6 and the survivor count [5] was 3 of 6.
With `O=C1C2CC3C1C1(Cl)C(Cl)C4(Cl)C2C3C1(Cl)C4(Cl)Cl` (stereo not given) the survivor count (T/C endpoint: mean survival time, dose: 150.0 mg/kg/injection, schedule: Q01DX001 (ip), vehicle: other) was 3 of 6 and the survivor count (T/C endpoint: mean survival time, dose: 300.0 mg/kg/injection, schedule: Q01DX001 (ip), vehicle: other) was 0 of 6.
With `CCCCCCCCCCCC[n+]1ccc(C#N)cc1` the survivor count (T/C endpoint: mean survival time, dose: 37.5 mg/kg/injection, schedule: Q01DX001 (ip), vehicle: saline) was 3 of 6.
In the case of `COc1cccc2c1C(=O)c1c(O)c3c(c(O)c1C2=O)CC(O)(C(=O)CO)CC3OC1CC(N)C(O)C(C)O1.[Cl][Pt+2][Cl].[NH2-].[NH2-]` (stereo not given), the T/C (T/C endpoint: median survival time, dose: 1.0 mg/kg/injection, schedule: Q04DX003 (ip), vehicle: DMSO) was 127 % of control, the T/C (T/C endpoint: median survival time, dose: 2.0 mg/kg/injection, schedule: Q04DX003 (ip), vehicle: DMSO) was 139 % of control and the T/C (T/C endpoint: median survival time, dose: 4.0 mg/kg/injection, schedule: Q04DX003 (ip), vehicle: DMSO) was 146 % of control. For the same compound, the survivor count (T/C endpoint: median survival time, dose: 32.0 mg/kg/injection, schedule: Q04DX003 (ip), vehicle: DMSO) was 6 of 6 and the survivor count (T/C endpoint: median survival time, dose: 64.0 mg/kg/injection, schedule: Q04DX003 (ip), vehicle: DMSO) was 6 of 6.
`CCN(CC)CCCNc1cc(OC)cc2nc3cc(Cl)ccc3nc12` was tested, and the survivor count (T/C endpoint: mean survival time, dose: 200.0 mg/kg/injection, schedule: Q01DX009 (ip), vehicle: suspension in saline) was 0 of 6.
For `N#Cc1c(F)c(F)c(NN)c(F)c1F`, the survivor count [5] was 2 of 6.
In the case of `CCCCCn1c(C)cc(/C=C\c2ccc3cc(C)ccc3[n+]2C)c1C`, the survivor count (T/C endpoint: mean survival time, dose: 2.5 mg/kg/injection, schedule: Q01DX009 (ip), vehicle: Klucel (hydroxypropylcellulose) (HPC)) was 2 of 6, the survivor count [9] was 0 of 6 and the survivor count (T/C endpoint: mean survival time, dose: 10.0 mg/kg/injection, schedule: Q01DX009 (ip), vehicle: Klucel (hydroxypropylcellulose) (HPC)) was 0 of 6. The survivor count (T/C endpoint: mean survival time, dose: 20.0 mg/kg/injection, schedule: Q01DX009 (ip), vehicle: Klucel (hydroxypropylcellulose) (HPC)) was 0 of 6.
`CN1C(=O)CC(c2ccc(NC(=O)N(CCCl)N=O)cc2)C1=O` (stereo not given) was tested, and the T/C (T/C endpoint: mean survival time, dose: 3.13 mg/kg/injection, schedule: Q01DX001 (ip), vehicle: distilled water + Tween-80) was 136 % of control, the T/C (T/C endpoint: mean survival time, dose: 6.25 mg/kg/injection, schedule: Q01DX001 (ip), vehicle: distilled water + Tween-80) was 143 % of control and the survivor count (T/C endpoint: mean survival time, dose: 50.0 mg/kg/injection, schedule: Q01DX001 (ip), vehicle: distilled water + Tween-80) was 6 of 6. The survivor count (T/C endpoint: mean survival time, dose: 100.0 mg/kg/injection, schedule: Q01DX001 (ip), vehicle: distilled water + Tween-80) was 2 of 6 and the survivor count (T/C endpoint: mean survival time, dose: 200.0 mg/kg/injection, schedule: Q01DX001 (ip), vehicle: distilled water + Tween-80) was 0 of 6.
With `O=C1c2cccc(NCCCNCCO)c2C(=O)c2cccc(NCCCNCCO)c21` the survivor count (T/C endpoint: median survival time, dose: 100.0 mg/kg/injection, schedule: Q01DX009 (ip), vehicle: acid diluted with saline) was 0 of 6.
For `O=S(=O)(/C=C\c1ccccc1)/C=C/c1ccccc1`, the survivor count (T/C endpoint: mean survival time, dose: 200.0 mg/kg/injection, schedule: Q04DX003 (ip), vehicle: saline with Tween-80) was 6 of 6.
With `COC(CN(C)Cc1c[nH]c2ccccc12)OC` the survivor count [10] was 3 of 6 and the survivor count [11] was 1 of 6.
With `CN/N=C/c1ccc(O)c(OC)c1` the survivor count [2] was 2 of 6.
For `CC(=O)C(C(C)=O)C1C=CC=CC=C1`, the survivor count [4] was 6 of 6.
For `CCOC(=O)c1[nH]c(=S)[nH]c1C(=O)OCC`, the survivor count (T/C endpoint: mean survival time, dose: 200.0 mg/kg/injection, schedule: Q01DX001 (ip), vehicle: saline) was 0 of 6 and the survivor count (T/C endpoint: mean survival time, dose: 400.0 mg/kg/injection, schedule: Q01DX001 (ip), vehicle: saline) was 0 of 6.
`CC(=O)C(CCN(C)C)(c1ccccc1)c1ccccc1` was tested, and the survivor count [11] was 0 of 6.
For `C1=CC(=C(C2CCC(Nc3ccccc3)CC2)C2CCC(Nc3ccccc3)CC2)C=CC1=Nc1ccccc1` (stereo not given), the survivor count [7] was 3 of 6.
For `CCOC(=O)c1ccc(NC(=O)N(C)C2CCCCC2)cc1`, the survivor count [8] was 6 of 6.
For `C=C1C(=O)OC2/C=C(\C)C3OC3/C=C(/C(=O)OC)C(O)C(OC(=O)C3(C)OC3C)C12` (stereo not given), the survivor count (T/C endpoint: mean survival time, dose: 200.0 mg/kg/injection, schedule: Q01DX001 (ip), vehicle: saline with Tween-80) was 0 of 6 and the survivor count [12] was 0 of 6.
In the case of `O=C(O)C(=O)O.[NH-]C1CCCCC1C1CCCCC1[NH-].[Pt+2]` (stereo not given), the T/C (T/C endpoint: mean survival time, dose: 12.5 mg/kg/injection, schedule: Q04DX003 (ip), vehicle: distilled water + Tween-80) was 125 % of control, the survivor count (T/C endpoint: mean survival time, dose: 100.0 mg/kg/injection, schedule: Q04DX003 (ip), vehicle: distilled water + Tween-80) was 3 of 6 and the survivor count (T/C endpoint: mean survival time, dose: 200.0 mg/kg/injection, schedule: Q04DX003 (ip), vehicle: distilled water + Tween-80) was 0 of 6.
With `CC1=NN(c2cccc(S(=O)(=O)O)c2)C(=O)C1N=Nc1cc(Cl)cc(S(=O)(=O)O)c1O.CC1=NN(c2cccc(S(=O)(=O)O)c2)C(=O)C1N=Nc1cc(Cl)cc(S(=O)(=O)O)c1O.[Cr]` (stereo not given) the survivor count (T/C endpoint: median survival time, dose: 800.0 mg/kg/injection, schedule: Q01DX009 (ip), vehicle: saline) was 0 of 6.
In the case of `Cc1c(C)c(C)c(CCl)c(C)c1C`, the survivor count [1] was 0 of 3.
`CC/C=C/CC(=O)NCc1ccc(O)c(OC)c1` was tested, and the survivor count [12] was 0 of 6.
With `N=C(N)SCCSC(=N)N` the survivor count [7] was 0 of 6.
`CN1CCS(=O)(=O)C1=O` was tested, and the survivor count (T/C endpoint: mean survival time, dose: 75.0 mg/kg/injection, schedule: Q01DX001 (ip), vehicle: saline) was 3 of 6, the survivor count [10] was 1 of 6 and the survivor count [11] was 0 of 6.
For `COC1CC(CC2CCC(C)C(C(C)C(=O)O)O2)OC2(OC(C)(C3CCC(C)(C4OC(C5OC(O)(CO)C(C)CC5C)CC4C)O3)CC2C)C1C` (stereo not given), the survivor count [9] was 3 of 6.
For `O=C1CC2OCCC3CN4CCC56c7ccccc7N1C5C2C3CC46` (stereo not given), the survivor count [11] was 0 of 6.
`Cc1ccc(NC(=O)Nc2cccc(CNC(=O)COc3ccc(Cl)cc3C(=O)O)c2)cc1S(=O)(=O)F` was tested, and the survivor count (T/C endpoint: mean survival time, dose: 100.0 mg/kg/injection, schedule: Q01DX001 (ip), vehicle: saline with Tween-80) was 6 of 6.
